# PubChem BioAssay (EPA / NIEHS)
# The chains behind the UniProt entries cited, without tags or fusion partners.
# UniProt P04637, whole entry, looked up: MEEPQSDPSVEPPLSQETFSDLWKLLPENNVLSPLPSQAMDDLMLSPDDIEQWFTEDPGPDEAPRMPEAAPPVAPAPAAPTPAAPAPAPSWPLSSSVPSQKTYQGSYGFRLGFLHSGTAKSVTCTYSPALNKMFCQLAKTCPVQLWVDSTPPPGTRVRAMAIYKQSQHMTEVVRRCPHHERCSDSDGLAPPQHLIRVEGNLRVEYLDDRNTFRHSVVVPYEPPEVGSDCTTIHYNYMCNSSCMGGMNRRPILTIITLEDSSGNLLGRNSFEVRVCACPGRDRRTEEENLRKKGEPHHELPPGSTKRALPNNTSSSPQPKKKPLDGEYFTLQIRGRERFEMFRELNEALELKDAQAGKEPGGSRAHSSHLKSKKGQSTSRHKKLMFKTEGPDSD
# Inconclusive means that the source gave no clear call. Such entries were picked first, then a sample of the others. For some assays here: Potencies beside an inconclusive call are fits to weak or partial responses and may not hold up. Calls of active or inactive are those of the source. The calls were made as follows: active = hit-call score of the fitted dose curve at least 0.9, where 1 is the maximum; inconclusive = response in the unintended direction; inactive = score below 0.9.
# Experiments:
# [1] = target: Cellular tumor antigen p53 (Homo sapiens) (UniProt P04637); assay: TOX21_p53_BLA_p3_ratio: Tox21 HCT-116 p53 Agonism Beta-lactamase Assay, Ratio, Phase 3 (AID 2283596)
# Method in brief: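 HCT116 p53-bla cells (4000/well) given compound in DMSO (217-fold dilution) after 5 h, incubated 16 h at 37C. CCF4-AM substrate 2 h at room temperature; 460/530 nm emission ratio, gain fitted against DMSO.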
# [2] = TOX21_p53_BLA_p5_viability: Viability Assessment in the Tox21 HCT-116 p53 Agonism Beta-lactamase Assay, Phase 5 (AID 2283600)
# Method in brief: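 HCT-116 p53 beta-lactamase reporter cells, 4000/well, were exposed to compound (pin transfer, 217-fold dilution) for 16 hours at 37C. Cellular ATP was read by CellTiter-Glo luminescence after 30 min at room temperature.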
# [3] = target: Cellular tumor antigen p53 (Homo sapiens) (UniProt P04637); assay: TOX21_p53_BLA_p4_ratio: Tox21 HCT-116 p53 Agonism Beta-lactamase Assay, Ratio, Phase 4 (AID 2283601)
# Method in brief: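 HCT116 cells carrying an inducible beta-lactamase reporter were plated at 4000 cells/well, rested 5 h, then exposed to compounds in DMSO (217-fold dilution) for 16 h at 37C. CCF4-AM substrate was loaded 2 h at room temperature; 460/530 nm emission ratio scored gain-of-signal versus DMSO.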
# [4] = TOX21_p53_BLA_p4_viability: Viability Assessment in the Tox21 HCT-116 p53 Agonism Beta-lactamase Assay, Phase 4 (AID 2283597);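 also: hits lower the luminescence signal meaning cytotoxicity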
# Method in brief: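 HCT-116 p53-bla cells, 4000/well, dosed after 5 h attachment and incubated 16 h at 37 °C, 5% CO2. Viability from CellTiter-Glo ATP luminescence after 30 min at room temperature, taken after the beta-lactamase read; loss of signal indicates cytotoxicity.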
# [5] = target: Cellular tumor antigen p53 (Homo sapiens) (UniProt P04637); assay: TOX21_p53_BLA_p5_ratio: Tox21 HCT-116 p53 Agonism Beta-lactamase Assay, Ratio, Phase 5 (AID 2283599)
# Method in brief: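 HCT-116 cells carrying a p53-inducible beta-lactamase reporter were seeded at 4000 cells/well and dosed after 5 h with compound in DMSO (217-fold dilution). After 16 h at 37C, CCF4-AM substrate was added for 2 h, and the 460/530 nm emission ratio was scored as gain-of-signal versus DMSO.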
# [6] = TOX21_PR_LUC_Followup_Antagonist_viability: Viability Assessment in the Tox21 HEK293 Progesterone Receptor (PR) Antagonism Luciferase Follow-Up Assay (AID 2283940)
# Method in brief: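 Multiplexed viability counter-screen: after 5 days in charcoal-stripped-FBS medium, HEK293-PR-A-luc cells are plated, pinned with DMSO-dissolved compounds for 16 h at 37C, and ATP content is quantified luminescently via CellTiter-Glo.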
# [7] = TOX21_PR_LUC_Followup_Agonist_viability: Viability Assessment in the Tox21 HEK293 Progesterone Receptor (PR) Agonism Luciferase Follow-Up Assay (AID 2283941);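 also: loss of signal means cytotoxicity so actives lower viability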
# Method in brief: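 Cells were kept 5 days in charcoal-stripped serum medium before plating HEK293-PR-A-luc at 3,000 cells/well. After 5 h they received DMSO-dissolved compound and incubated 16 h at 37C. Viability was taken from CellTiter-Glo ATP luminescence.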
smiles,measurement,setting,value
CN1CCC(OC(=O)C(Oc2ccc(Cl)cc2)Oc2ccc(Cl)cc2)CC1,AC50,[1],inconclusive: 23 µM
same,AC50,[2],inconclusive: 23 µM
same,outcome,[3],inactive
CCc1nccnc1CC,AC50,[4],inconclusive: 14.3 µM
same,AC50,[5],inconclusive: 22.9 µM
N.N.O=C([O-])C1(C(=O)[O-])CCC1.[Pt+4],AC50,[4],inconclusive: 23 µM
same,outcome,[5],inactive
same,outcome,[2],inactive
same,AC50,[3],inconclusive: 23 µM
C[C@]12CC[C@@H]3c4ccc(OS(=O)(=O)O)cc4CC[C@H]3[C@@H]1CCC2=O,AC50,[4],inconclusive: 23 µM
same,AC50,[5],inconclusive: 9.2 µM
same,AC50,[2],inconclusive: 0.179 µM
same,outcome,[3],inactive
OCCSc1ccccc1,outcome,[4],inactive
same,AC50,[5],inconclusive: 46.1 µM
same,AC50,[2],inconclusive: 46.1 µM
O=C1CC2(CCCC2)CC(=O)N1CCNCC1COc2ccccc2O1 (stereo unspecified),AC50,[4],inconclusive: 23 µM
O=C(NCCNCC(O)COc1ccc(O)cc1)N1CCOCC1 (stereo unspecified),AC50,[4],inconclusive: 23 µM
CCC[C@@H]1C[C@@H](C(=O)N[C@@H]([C@H]2O[C@H](SC)[C@H](O)[C@@H](O)[C@H]2O)[C@@H](C)O)N(C)C1,AC50,[4],inconclusive: 44.2 µM
same,AC50,[5],inconclusive: 23 µM
same,AC50,[2],inconclusive: 23 µM
same,AC50,[3],inconclusive: 23 µM
C=CC(=O)CCCCC,AC50,[4],inconclusive: 47.7 µM
COC(=O)C(CN)c1c[nH]c2ccc(OC)cc12 (stereo unspecified),AC50,[4],inconclusive: 23 µM
same,outcome,[2],inactive
Cc1nnc(C(C)C)n1C1C[C@H]2CC[C@@H](C1)N2CC[C@@H](NC(=O)C1CCC(F)(F)CC1)c1ccccc1 (stereo partly specified),outcome,[4],inactive
same,AC50,[5],inconclusive: 23 µM
same,AC50,[3],inconclusive: 23 µM
COc1ccc(C(=O)Nc2ccccc2)cc1[N+](=O)[O-],AC50,[4],inconclusive: 46.4 µM
same,outcome,[2],inactive
C[N+]1(C)[C@@H]2CC(OC(=O)C(O)(c3cccs3)c3cccs3)C[C@H]1[C@@H]1O[C@@H]12 (stereo partly specified),outcome,[4],inactive
same,AC50,[2],inconclusive: 23 µM
CC(C)OC(=O)c1cc2c(OCC(O)CNC(C)(C)C)cccc2[nH]1 (stereo unspecified),outcome,[4],inactive
same,AC50,[5],inconclusive: 23 µM
same,AC50,[3],inconclusive: 23 µM
COc1cc(C(=O)NCc2ccc(OCCN(C)C)cc2)cc(OC)c1OC,AC50,[4],inconclusive: 10.3 µM
same,outcome,[5],inactive
same,outcome,[3],inactive
COc1cc2[nH]c(C)c(CCN3CCN(c4ccccc4)CC3)c2cc1OC,outcome,[4],inactive
same,AC50,[5],inconclusive: 15.8 µM
same,AC50,[3],inconclusive: 19.9 µM
CC(=O)N[C@@H]([C@@H](O)[C@H](O)[C@H](O)CO)[C@@H](O)CC(=O)C(=O)O,AC50,[4],inconclusive: 23 µM
same,AC50,[2],inconclusive: 23 µM
CO/N=C(\C(=O)N[C@@H]1C(=O)N2C(C(=O)[O-])=C(C[n+]3ccc(N)n3CCO)CS[C@H]12)c1csc(N)n1,outcome,[4],inactive
same,outcome,[5],inactive
same,AC50,[3],inconclusive: 23 µM
CN(C)CCOC(c1ccc(Cl)cc1)c1ccccn1 (stereo unspecified),outcome,[4],inactive
same,AC50,[2],inconclusive: 23 µM
same,AC50,[3],inconclusive: 43.9 µM
CN1CCN(c2c(F)cc3c(=O)c(C(=O)O)cn(CCF)c3c2F)CC1,AC50,[4],inconclusive: 44.2 µM
same,AC50,[2],inconclusive: 23 µM
C=CCCC=C,AC50,[4],inconclusive: 47.2 µM
same,AC50,[5],inconclusive: 47.2 µM
same,outcome,[3],inactive
Nc1ccc(S(=O)(=O)Nc2ccccn2)cc1,AC50,[4],inconclusive: 10.3 µM
same,AC50,[2],inconclusive: 10.3 µM
same,outcome,[3],inactive
CC1=CC[C@H](CC=O)C1(C)C,outcome,[4],inactive
same,AC50,[2],inconclusive: 46.1 µM
same,AC50,[3],inconclusive: 46.1 µM
OCC(CO)N[C@H]1C[C@](O)(CO)[C@@H](O)[C@H](O)[C@H]1O,AC50,[4],inconclusive: 4.57 µM
same,AC50,[5],inconclusive: 23 µM
same,AC50,[3],inconclusive: 23 µM
[O]=[Zr],AC50,[4],inconclusive: 45.9 µM
same,AC50,[5],inconclusive: 45.9 µM
same,AC50,[3],inconclusive: 45.9 µM
FC(F)(F)C(F)(F)C(F)(F)C(F)(F)C(F)(F)C(F)(F)C(F)(F)C(F)(F)Br,AC50,[4],inconclusive: 23 µM
same,AC50,[2],inconclusive: 23 µM
CCOC(=O)[C@H](CCc1ccccc1)N[C@@H](C)C(=O)N1[C@H](C(=O)O)C[C@@H]2CCC[C@@H]21,outcome,[4],inactive
same,AC50,[2],inconclusive: 0.00923 µM
C[C@]12CCC(=O)C=C1CC[C@@H]1[C@@H]2CC[C@@]2(C)[C@H]1CC[C@]2(O)C(=O)CO,outcome,[4],inactive
same,AC50,[5],inconclusive: 43.7 µM
same,outcome,[6],inactive
CN(C)C(=O)CNC(=O)Cc1ccccc1,outcome,[4],inactive
same,AC50,[2],inconclusive: 23 µM
CCCOCCOCCO,AC50,[4],inconclusive: 46 µM
same,AC50,[2],inconclusive: 46 µM
O=C[C@H](O)[C@@H](O)[C@@H](O)[C@H](O)CO,outcome,[4],inactive
same,AC50,[5],inconclusive: 23 µM
same,outcome,[2],inactive
same,outcome,[3],inactive
CN(C1CCCCC1)S(=O)(=O)c1ccccc1N,outcome,[4],inactive
same,AC50,[5],inconclusive: 46.1 µM
same,outcome,[7],inactive

# At a glance, part of the list above:
smiles,measurement,setting,value
CN1CCC(OC(=O)C(Oc2ccc(Cl)cc2)Oc2ccc(Cl)cc2)CC1,AC50,[2],inconclusive: 23 µM
same,outcome,[3],inactive

# Fetched one by one from the entries so far, 2 records:
smiles,measurement,setting,value
CCC[C@@H]1C[C@@H](C(=O)N[C@@H]([C@H]2O[C@H](SC)[C@H](O)[C@@H](O)[C@H]2O)[C@@H](C)O)N(C)C1,AC50,[3],inconclusive: 23 µM
CC(C)OC(=O)c1cc2c(OCC(O)CNC(C)(C)C)cccc2[nH]1 (stereo unspecified),AC50,[5],inconclusive: 23 µM
